Earlier results in patent US20080267939A1, “SYNERGISTIC ANTI-HYPERTENSIVE PHYTO-NUTRACEUTICAL COMPOSITION” (priority 2006, published 2008).
At least one structure is not confirmed: it was looked up by name or label, or the drawing left a doubt.

Tests used:
[1] = test system: dilated cardiomiopathy patients
[2] = test system: patients with dilated cardiomiopathy; settings: seven patients with dilated cardiomiopathy
[3] = dilated cardiomiopathy patients

In the case of C=C[C@@]1(C)CC(=O)[C@]2(O)[C@@]3(C)[C@@H](O)CCC(C)(C)[C@@H]3[C@H](O)[C@H](OC(C)=O)[C@@]2(C)O1 [forskolin], the “reduction in arterial pressure” value ([1]; accompanied by symptomatic flush) is listed as 20%, the “improvement in left ventricle contractility” value [1, 3] is listed as 19% and the vascular resistance [1, 3] is listed as “decreased vascular resistance”. The “heart rate increase, average” value ([1]; study patients) was 16%, the diastolic blood pressure [2] was “significantly reduced” and the left ventricular function [2] was “improved”.
